Measured values taken from article PMC7049810.
These are yes or no findings as the source states them, for the method shown. In cells and extracts the contact can be indirect. These calls come from enrichment with a bait or labelling near it, and not all partners need be listed.

Sequences of proteins named here, by UniProt entry; tags and fusion partners are left off. Residues count along the entry.
UniProt P24228, residues 21-477: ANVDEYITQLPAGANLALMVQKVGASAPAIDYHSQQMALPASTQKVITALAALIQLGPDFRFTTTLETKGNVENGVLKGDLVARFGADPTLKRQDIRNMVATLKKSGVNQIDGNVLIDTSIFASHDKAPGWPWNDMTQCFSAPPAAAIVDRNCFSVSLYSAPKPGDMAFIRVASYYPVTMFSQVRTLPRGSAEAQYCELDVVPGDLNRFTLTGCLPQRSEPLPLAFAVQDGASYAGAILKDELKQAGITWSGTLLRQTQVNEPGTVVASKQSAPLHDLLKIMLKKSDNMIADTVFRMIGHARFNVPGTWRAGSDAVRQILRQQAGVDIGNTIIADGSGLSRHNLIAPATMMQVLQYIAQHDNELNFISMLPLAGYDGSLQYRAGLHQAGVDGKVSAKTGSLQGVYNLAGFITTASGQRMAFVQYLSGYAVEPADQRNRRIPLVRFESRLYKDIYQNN
UniProt P06136: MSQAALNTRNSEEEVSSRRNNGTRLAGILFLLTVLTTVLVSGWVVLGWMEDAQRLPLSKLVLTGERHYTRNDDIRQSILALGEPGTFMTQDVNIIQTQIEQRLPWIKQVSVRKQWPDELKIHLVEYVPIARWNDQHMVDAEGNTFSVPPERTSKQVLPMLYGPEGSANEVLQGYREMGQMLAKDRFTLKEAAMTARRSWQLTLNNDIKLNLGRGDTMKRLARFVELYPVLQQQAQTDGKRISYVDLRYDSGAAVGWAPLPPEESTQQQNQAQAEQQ

What was measured:
[1] = target: T1, NlpI, soluble version lacking its membrane anchor (Escherichia coli) (UniProt P0AFB1); experiment: affinity purification with mass spectrometry; NlpI coupled to Sepharose; detergent-solubilized E. coli membrane extract bound at low salt (50 mM NaCl), 6°C, eluted with 1 M NaCl; label-free LC-MS against a Tris-Sepharose control column; only the target purified
T1 sequence (chain, where used as fl-NlpI in MST, NT647 RED-NHS dye on amines): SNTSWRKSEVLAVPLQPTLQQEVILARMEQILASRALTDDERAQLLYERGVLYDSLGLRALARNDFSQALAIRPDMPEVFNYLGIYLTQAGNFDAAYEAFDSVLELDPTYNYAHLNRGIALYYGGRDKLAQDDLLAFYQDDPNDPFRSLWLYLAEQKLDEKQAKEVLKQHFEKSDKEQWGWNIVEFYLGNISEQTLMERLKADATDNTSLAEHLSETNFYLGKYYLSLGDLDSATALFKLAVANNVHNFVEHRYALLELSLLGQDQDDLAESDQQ

[2] = target: T1, NlpI, soluble version lacking its membrane anchor (Escherichia coli); experiment: affinity purification with mass spectrometry; NlpI coupled to Sepharose; detergent-solubilized E. coli membrane extract bound at high salt (400 mM NaCl), 6°C, eluted with 2 M NaCl; label-free LC-MS against a Tris-Sepharose control column; only the target purified

Substance | binding [1] | binding [2]
PBP4, endogenous in E. coli membrane extract (from UniProt P24228 21-477) (enzyme) | binds | –
FtsQ, endogenous in E. coli membrane extract (from UniProt P06136 1-276) | binds | binds
